Measured data: PubChem BioAssay AID652272 (Drosophila RNAi Screening Center, 2013)
Test: 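Finding fly genes that regulate Hedgehog signal transduction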 (primary screen). System: Drosophila clone 8 (Cl8) cells. Knock-down reagent: long dsRNA against Drosophila genes. Measurement: 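Plate reader light from a firefly reporter under a ptc promoter fragment that responds to Hedgehog, with Renilla light as transfection reference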. Direction: firefly Hh reporter signal: higher = more ptc reporter light; Renilla reference signal: higher = more Renilla control light. Rule for the call: 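Called a hit if the two-replicate mean z-score lies below -2 or above +3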. Calls: active = hit: reporter lowered or raised; inactive = not a hit.
In all, the deposit lists about 21,000 reagents; below is a random part of those that have a named target and a result. Of all reagents, 503 (2.4%) got an active call. 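Raw plate light values, not normalised; calls rest on replicate z-scores that were not deposited; hits include reporter decreases as well as increases.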 Names joined by + are all predicted targets of the reagent. Not stated in the record: the amount of reagent, the time to read-out.

iotaTry (iotaTrypsin) — firefly Hh reporter signal, replicate 1: 76512; firefly Hh reporter signal, replicate 2: 44968; Renilla reference signal, replicate 1: 1910; Renilla reference signal, replicate 2: 3681; activity call: inactive
CG42531 — firefly Hh reporter signal, replicate 1: 1.40e5; firefly Hh reporter signal, replicate 2: 2.79e5; Renilla reference signal, replicate 1: 4067; Renilla reference signal, replicate 2: 12458; activity call: inactive
CG14692 — firefly Hh reporter signal, replicate 1: 65740; firefly Hh reporter signal, replicate 2: 1.21e5; Renilla reference signal, replicate 1: 1537; Renilla reference signal, replicate 2: 3504; activity call: inactive
CG11563 — firefly Hh reporter signal, replicate 1: 83626; firefly Hh reporter signal, replicate 2: 1.45e5; Renilla reference signal, replicate 1: 3392; Renilla reference signal, replicate 2: 7444; activity call: inactive
CG18542 + CG32939 — firefly Hh reporter signal, replicate 1: 1.10e5; firefly Hh reporter signal, replicate 2: 85784; Renilla reference signal, replicate 1: 4411; Renilla reference signal, replicate 2: 3063; activity call: inactive
Nup58 (Nucleoporin 58kD) — firefly Hh reporter signal, replicate 1: 5.75e5; firefly Hh reporter signal, replicate 2: 97260; Renilla reference signal, replicate 1: 29276; Renilla reference signal, replicate 2: 2618; activity call: inactive
CG32633 — firefly Hh reporter signal, replicate 1: 6.82e5; firefly Hh reporter signal, replicate 2: 2.31e5; Renilla reference signal, replicate 1: 35655; Renilla reference signal, replicate 2: 5602; activity call: inactive
Muc26B (Mucin 26B) — firefly Hh reporter signal, replicate 1: 1.27e5; firefly Hh reporter signal, replicate 2: 63506; Renilla reference signal, replicate 1: 3504; Renilla reference signal, replicate 2: 6546; activity call: inactive

Sorted by “Renilla reference signal, replicate 2” (descending): 3 of the entries above
CG32633 — firefly Hh reporter signal, replicate 1: 6.82e5; firefly Hh reporter signal, replicate 2: 2.31e5; Renilla reference signal, replicate 1: 35655; Renilla reference signal, replicate 2: 5602; activity call: inactive
CG18542 + CG32939 — firefly Hh reporter signal, replicate 1: 1.10e5; firefly Hh reporter signal, replicate 2: 85784; Renilla reference signal, replicate 1: 4411; Renilla reference signal, replicate 2: 3063; activity call: inactive
Nup58 (Nucleoporin 58kD) — firefly Hh reporter signal, replicate 1: 5.75e5; firefly Hh reporter signal, replicate 2: 97260; Renilla reference signal, replicate 1: 29276; Renilla reference signal, replicate 2: 2618; activity call: inactive

The results go on:
lsn (larsen) — firefly Hh reporter signal, replicate 1: 7.73e5; firefly Hh reporter signal, replicate 2: 1.66e5; Renilla reference signal, replicate 1: 45725; Renilla reference signal, replicate 2: 2400; activity call: inactive
mRpS25 (mitochondrial ribosomal protein S25) — firefly Hh reporter signal, replicate 1: 1.13e5; firefly Hh reporter signal, replicate 2: 2.92e5; Renilla reference signal, replicate 1: 3984; Renilla reference signal, replicate 2: 12091; activity call: inactive
CG13123 — firefly Hh reporter signal, replicate 1: 68467; firefly Hh reporter signal, replicate 2: 50540; Renilla reference signal, replicate 1: 2032; Renilla reference signal, replicate 2: 4375; activity call: inactive
CG4066 — firefly Hh reporter signal, replicate 1: 93850; firefly Hh reporter signal, replicate 2: 1.01e5; Renilla reference signal, replicate 1: 3257; Renilla reference signal, replicate 2: 2802; activity call: inactive
bic (bicaudal) — firefly Hh reporter signal, replicate 1: 90248; firefly Hh reporter signal, replicate 2: 59953; Renilla reference signal, replicate 1: 4962; Renilla reference signal, replicate 2: 3496; activity call: inactive
g (garnet) — firefly Hh reporter signal, replicate 1: 1.00e5; firefly Hh reporter signal, replicate 2: 2.25e5; Renilla reference signal, replicate 1: 2986; Renilla reference signal, replicate 2: 8932; activity call: inactive
Osi5 (Osiris 5) — firefly Hh reporter signal, replicate 1: 88857; firefly Hh reporter signal, replicate 2: 1.08e5; Renilla reference signal, replicate 1: 3328; Renilla reference signal, replicate 2: 2930; activity call: inactive
CG12538 — firefly Hh reporter signal, replicate 1: 58988; firefly Hh reporter signal, replicate 2: 57543; Renilla reference signal, replicate 1: 1563; Renilla reference signal, replicate 2: 1313; activity call: inactive
gdl-ORF39 + gdl — firefly Hh reporter signal, replicate 1: 1.23e5; Renilla reference signal, replicate 1: 5339; Renilla reference signal, replicate 2: 3445; activity call: inactive
mthl4 (methuselah-like 4) — firefly Hh reporter signal, replicate 1: 1.33e5; firefly Hh reporter signal, replicate 2: 1.00e5; Renilla reference signal, replicate 1: 3621; Renilla reference signal, replicate 2: 7411; activity call: inactive
GatA (Glutamyl-tRNA amidotransferase, subunit A) — firefly Hh reporter signal, replicate 1: 1.56e5; firefly Hh reporter signal, replicate 2: 74545; Renilla reference signal, replicate 1: 6315; Renilla reference signal, replicate 2: 3286; activity call: inactive
Alg13 (Alg13 UDP-N-acetylglucosaminyltransferase subunit) — firefly Hh reporter signal, replicate 1: 2.32e5; firefly Hh reporter signal, replicate 2: 1.84e5; Renilla reference signal, replicate 1: 7540; Renilla reference signal, replicate 2: 3930; activity call: inactive
Cyp6g2 (Cytochrome P450 6g2) — firefly Hh reporter signal, replicate 1: 78699; firefly Hh reporter signal, replicate 2: 37168; Renilla reference signal, replicate 1: 2065; Renilla reference signal, replicate 2: 3156; activity call: inactive
